First the molecules themselves.
T1: Myc-MARCH5 (membrane-associated RING-CH-type finger 5, E3 ubiquitin ligase) (UniProt Q9NX47)
T1 sequence: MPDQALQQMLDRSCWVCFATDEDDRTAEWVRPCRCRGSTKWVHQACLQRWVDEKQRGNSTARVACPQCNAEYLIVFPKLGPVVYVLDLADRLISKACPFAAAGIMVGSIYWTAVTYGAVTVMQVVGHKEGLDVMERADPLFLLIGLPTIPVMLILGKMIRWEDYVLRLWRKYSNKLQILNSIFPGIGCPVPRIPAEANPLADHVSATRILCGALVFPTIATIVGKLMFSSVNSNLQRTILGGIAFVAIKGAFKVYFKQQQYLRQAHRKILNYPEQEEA

B1: Flag-tagged porcine IRF3 (protein, UniProt Q764M6 1-419)
chain: MGTQKPRILPWLISQLNQGQLEGVAWLDEGHTRFRIPWKHGLRQDAQQEDFGIFQAWAEASGAYTPGKDKPDLPTWKRNFRSALNRKEALRLAEDHSKDPHDPHKIYEFVTSGVGDFPEPDTSLDLSGRYSTSDTHEDSLDKLLSGMDLASDAGPQSLTLALEQPPQLSLSPSVDAPASCPNLGVRENPLKQLLANDDEWEFQVTVFYRGCQVFQQTVCSPGGLRLVGSEAEDGTLAGQPVRLPDPAASLTDRGVADYVRRVLSCLGGGLALWRAGQWLWAQRLGHCHVYWAMGEELIPDSGHKPDGEVPKDREGGVFDLGPFIEDLIAFIEGSRRSPRYTLWFCMGQSWPQDEPWVKRLVMVKVVPMCLRALVDMARDGGASSLENTVDLHISNSHPLSLTSDQYKACLRDLVEDMDF
B2: Flag-tagged porcine RIG-I (protein, UniProt Q9GLV6 1-940)
chain: MTAEQRRNLHAFGDYVRKTLDPTFILSYMAPWFRDDEVQHIQAEKNNKGPTEAASLFLQFLLELQEEGWFRGFLDALNQAGYCGLCEAIESWDFQKIEKLEEYRSLLRRLQPEFKTTINPKDILPEIAECLISQECEEILQICSSKGLMAGAEKMVECLLRSDKENWPKTLKLALEKEESRFSELWMVDKGAEDVKMKDLEDDEMKTCDVQIFYKEEPENQNLSQNSCSSSAPHTYSPLKPRKYQLELALPAQNGKNTIICAPTGCGKTFVSLLICEHHLKKFPRGRKGKVVFFAIQLPVYEQQKSVFSKHFERLGYKVAGISGATSDTVCVEQIVENSDIIILTPQILVNCLTNGTIPSLSVFTLMIFDECHNTSKQHPYNVIMFSYLDRKLGGSSDSLPQVIGLTASVGVGDAKNKAEATEYICKLCASLDTSVIATVRDNLEELEEVVYKPQKFFRKVELRTTDRFKCIISQLMMEIESLAKSIFEELGTITLGGLFQIQNSNFGTQKYEQWIVKVQKECAVFQMPDKDKESRICKALFSYMSHLRIYNDALIINEHARMKDALDYLKDFFRNIRAAGFDEIEQDLTQRFEEKLQELESISIDPSNENPKLRDLCFILQEEYHLNPETRTILFVKTRALVDALKKWIKENPKLSFLKPSILTGRGKTNQNIGMTLPAQKCVLDTFRTDKDNKILITTSVADEGIDIAQCNLVILYEYVGNVIKMIQTRGRGRARGSKCFLLTANADLIDKEKMNMYKEEMMNGAILILQTWDEAVFKEKIHQIQIREKIIRDNQGKPEPVPDKKTKKLLCKKCKAFACYTADIRMVEKCHFTVVGDAFRERFVSKLHPKPKSFGNIEKRAKIYCARPDCSHDWGIYVRYKAFEMPFIKIESFVVEDIATGVQTVHAKWKDFNFEKLSFDAAEMAGGAQDLGLQGMGN
B3: Flag-tagged porcine IKKε (enzyme, UniProt M9MMN5 1-718)
chain: MQSTVNYLWHTDDLLGQGATASVYKARNKKSGELVAVKVFNTASYLRPREVQVREFEVLRKLNHQNIIKLFAVEETGGSRQKVLVMEYCSSGSLLSVLESPENAFGLPENEFLVVLRCVVAGMNHLRENGIVHRDIKPGNIMRLVGEEGQSIYKLTDFGAARELDDDEKFVSVYGTEEYLHPDMYEQAVLRKPQQKAFGVTVDLWSIGVTLYHAATGSLPFIPYGGPRRNKEIMYRITSEKPAGAIAGIQKRENGPLEWSYTLPVTCQLSTGLQSQLVPILANILEVEQAKCWGFDQFFAETSDILQRVIVHVFSLPQAVLHHVYVHTHNTIAIFLEAVYEQTNVAPQHQEYLFEGHLCVLEPSLSAQHIAHTTASSPLTLFSVASEIPKGLAFRDPALDIPKFVPKVDLQADYNTAKGVLGAGYQALRLARALLAGQELMLRGLHWFVEILQATCKRTLEVTRMALLFLSSSLGNERSSSVAGVQEIQELKRVAEMRSQLRTLAEVLSRCSHNITETQMTLSNLSSELMKNRDQVHEDRSIQQIQCSLDKMCLIYKQFKKSRMRPGLGYNEEQIHKLDKMNFSHLAKRLLQVFQEERVQKYQASLVTHGKRMRLVHETRNHLRLVGCSVAACNTQAQGAQESLSQILDQLAHQLLQDRTRGAQASPPLMATYPNPGLKDLVLHMQELCEEMKLLACDLQDNNRIIEGLNRVPAAPDI

No constants are given. Whether binding was seen depends on the method and setting. Binding seen in cells or lysates may run through a third protein. For part of these data: Binding calls can cover weak binding; strength is not graded here. Where a sequence is shown, tags or fusion partners need not be part of it.

One test has as its target T1, Myc-MARCH5 (membrane-associated RING-CH-type finger 5, E3 ubiquitin ligase). The experiment in a line: co-IP.
“Flag-tagged JEV capsid (C) protein (Japanese encephalitis virus)”: the binding result is reported as “no binding”. The same measure, in the same setting: as for “Flag-tagged JEV envelope (E) protein (Japanese encephalitis virus)”, the entry is “binds”; as for “Flag-tagged JEV precursor membrane (prM) protein (Japanese encephalitis virus)”, “no binding”.

A further test deals with Myc-tagged porcine MARCH5 (porcine). The experiment in a line: co-IP; HEK-293T cells co-transfected for 24 h, lysed in RIPA buffer with 1 mM PMSF; lysates with anti-Myc magnetic beads overnight at 4°C (Fig. 2A, 6A; beads of Fig. 6C not told), three washes, western blot.
Regarding B1, the binding entry is on record as “no binding”. Same read-out and setting: next, B2: “no binding”. B3: the binding result was “no binding”.
